# Assay results taken from article PMC6183346.
# By UniProt entry, the sequences of proteins in these tests, tags left out.
# UniProt P06428: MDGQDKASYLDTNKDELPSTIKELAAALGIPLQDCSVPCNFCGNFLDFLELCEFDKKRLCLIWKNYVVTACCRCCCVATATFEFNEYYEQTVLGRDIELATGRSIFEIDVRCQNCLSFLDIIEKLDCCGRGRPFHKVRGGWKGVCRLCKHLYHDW
# UniProt Q01968: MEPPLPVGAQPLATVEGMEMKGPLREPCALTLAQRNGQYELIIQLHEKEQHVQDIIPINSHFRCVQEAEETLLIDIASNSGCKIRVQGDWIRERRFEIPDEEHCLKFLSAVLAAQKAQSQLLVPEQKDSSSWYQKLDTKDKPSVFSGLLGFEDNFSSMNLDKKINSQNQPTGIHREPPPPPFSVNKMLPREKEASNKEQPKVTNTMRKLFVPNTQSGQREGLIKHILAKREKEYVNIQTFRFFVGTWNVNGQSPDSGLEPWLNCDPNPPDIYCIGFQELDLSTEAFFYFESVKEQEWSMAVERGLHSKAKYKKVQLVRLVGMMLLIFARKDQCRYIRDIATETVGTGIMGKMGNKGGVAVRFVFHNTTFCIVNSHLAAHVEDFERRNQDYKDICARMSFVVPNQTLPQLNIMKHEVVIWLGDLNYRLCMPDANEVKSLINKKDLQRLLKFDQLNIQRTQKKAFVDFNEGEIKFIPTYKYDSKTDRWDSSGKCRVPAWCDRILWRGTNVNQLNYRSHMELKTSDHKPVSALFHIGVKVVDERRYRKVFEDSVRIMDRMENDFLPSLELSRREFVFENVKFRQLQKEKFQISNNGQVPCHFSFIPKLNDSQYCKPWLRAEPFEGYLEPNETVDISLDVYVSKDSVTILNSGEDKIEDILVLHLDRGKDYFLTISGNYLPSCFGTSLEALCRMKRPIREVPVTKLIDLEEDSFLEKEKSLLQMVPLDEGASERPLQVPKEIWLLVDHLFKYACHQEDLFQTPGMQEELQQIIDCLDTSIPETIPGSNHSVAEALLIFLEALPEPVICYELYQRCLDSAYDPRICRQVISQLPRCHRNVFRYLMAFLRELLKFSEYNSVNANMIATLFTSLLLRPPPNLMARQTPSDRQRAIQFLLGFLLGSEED
# These are yes or no findings as the source states them, for the method shown. In cells and extracts the contact can be indirect. These calls come from enrichment with a bait or labelling near it, and not all partners need be listed.
# Molecular target: Flag-tagged HPV8-E6wt (human papillomavirus type 8) (UniProt P06428)
# Test: affinity purification with mass spectrometry; immunoprecipitation-coupled mass spectroscopy of HPV8-E6; construct, cells and conditions not told
substance,measurement,value
inositol-polyphosphate-5-phosphatase (OCRL1) (from UniProt Q01968 1-901) (enzyme),binding,binds
